{
  "source": "patent US20190374563A1",
  "about": "“TREATMENT OF KLEBSIELLA PNEUMONIAE INFECTIONS WITH ANTIBACTERIAL AMINOGLYCOSIDE COMPOUNDS” (Achaogen, Inc., priority 2009, published 2019)",
  "test_system": "S. aureus ATCC 33591 (MRSA)",
  "assay": "MIC of strains used in the thigh model",
  "assay_type": "cell-based",
  "conditions": "Staphylococcus aureus",
  "data": [
    {"smiles": "CN[C@H](CC(C)C)C(=O)N[C@H]1C(=O)N[C@@H](CC(N)=O)C(=O)N[C@H]2C(=O)N[C@H]3C(=O)N[C@H](C(=O)N[C@H](C(=O)O)c4cc(O)cc(O)c4-c4cc3ccc4O)[C@H](O)c3ccc(c(Cl)c3)Oc3cc2cc(c3O[C@@H]2O[C@H](CO)[C@@H](O)[C@H](O)[C@H]2O[C@H]2C[C@](C)(N)[C@H](O)[C@H](C)O2)Oc2ccc(cc2Cl)[C@H]1O", "note": "[VAN, vancomycin]", "values": [
      {"measurement": "MIC", "value": 1, "unit": "µg/mL"}
    ]}
  ]
}
